19 molecules from PMC10163288 can be followed below.

B1: il10ra_site1_normal_mot_8756ee2cf497b5429c717dfc0c0bcfd6_0001_000000186_0001_1_13_H_._HHH_b1_07345_af2_0001_0000100004_0000001_0 (protein)
chain: SSSSDEELEELFRLSEEIAKLLHEGDREEAEELVKEAEELAERLGNDVALHQLEYLQRHINSSSS
B2: il10ra_site1_normal_mot_HHH_b1_04771_000000013_0001_40_56_H_._HHH_b1_08243_0001_0000100007_0000001_0 (protein)
chain: SSSSDEEVEEVAELSLEAFRLALRGNPEEARKLLEEAEELAEEANDPRLLEVIRHLLKALSSSSS
B3: il10ra_site1_sap_26_mot_HHH_b2_02736_000000092_0001_22_38_H_._HHH_b2_04967_af2_0002_0000200019_0000002_0_0001_af2pred_0001 (protein)
chain: SSSEEEVEELVKEVERVAEERGDPKARLSARFYAVLARVAAKRDNEDALKALRRALQAFRENSSS
B4: il10ra_site1_sap_15_mot_HHH_b1_04514_000000156_0001_1_18_H_._HHH_b1_00644_0001_0000200013_0000002_0_0001 (protein)
chain: SSSSSSDEEEVEKLLEEAEHISDEEERMKVLMEALRIALRLGNPELLHLVWRVIKELISSSSSSS
B5: il10ra_site1_sap_17_mot_HHH_b2_03220_af2_000000223_0001_23_40_H_._HHH_b2_01415_af2_0001_0000200009_0000002_0_0001 (protein)
chain: SSSSDEEAEEVFRLMKEAAHIDDEEEVREVLEEALRLAEEAGNQNMIVNLRYWLEAVERGSSSSS
B6: il10ra_site1_normal_mot_HHH_b2_07938_000000207_0001_42_56_H_._HHH_b1_00305_af2_0001_0000200009_0000001_0 (protein)
chain: SSSSSSELEEHIKELVELFGLSEEQEHYLEVAAEALKEKGVSEEEIRHMLEIQAKLLALGSSSSS
B7: il10ra_site1_normal_mot_HHH_b1_02881_000000046_0001_1_20_H_._HHH_b2_03598_0001_0000100004_0000001_0 (protein)
chain: SSSSSDEEYEERVEELLEEAQKSDDPDERYRLLREAIEVAAEGNDPELQRLVAEASAEIFSSSSS
B8: il10ra_site1_normal_mot_05ca327611f5605f0dd8494b449afcbf_0001_1_000000248_0001_35_51_H_._HHH_b2_01978_0001_0000100002_0000001_0 (protein)
chain: SSSSDVERVEEAQELLRQAAEIEDPEEARELLERAKELAEEAGNETLKISIEYLERQLERSSSSS
B9: il10ra_site1_sap_20_mot_HHH_b1_06789_af2_000000041_0001_1_20_H_._HHH_b2_00653_af2_0001_0000100003_0000001_1_0001_af2pred_0001 (protein)
chain: SSSSSRTQEVLKLIREAMELLQRGNPEEAEEVAREAVELAQEAGDPLAAHIAERLLEHIGSSSSS
B10: il10ra_site1_normal_mot_HHH_b2_01649_af2_000000191_0001_40_56_H_._HHH_b1_04317_0001_0000100005_0000002_0_af2pred_dldesign_0_af2pred (protein)
chain: SSSSSEAEITFAAGRHAIRAALEAGDLEAAQRALDYWSSVLEELGAPELVEALRAEYERLLSSSS
B11: il10ra_site1_sap_15_mot_HHH_b1_04940_000000219_0001_1_18_H_._HHH_b2_05338_0001_0000100008_0000001_0_0001 (protein)
chain: SSSSDAEWLVRQAQKALELARRNGDEEALRWAAEALLNLAKHLNDEELEEEARELLEELNSSSSS
B12: il10ra_site1_normal_mot_HHH_b2_04680_000000215_0001_1_16_H_._HHH_b1_04462_af2_0001_0000500043_0000001_0 (protein)
chain: SSSSDKETREAYEIAREAFHVEDEEEREELLEEALELAREGGNFALVFAIENLLRALREGSSSSS
B13: il10ra_site1_sap_20_mot_HHH_b1_05083_af2_000000148_0001_42_57_H_._HHH_b2_02934_0001_0000100002_0000002_0_0001_af2pred_0001 (protein)
chain: SSSSSEEVEELLEEAERLAEEGNPQEALEALFKASRIALELGDPELARKVDEVARRLLELLSSSS
B14: il10ra_site1_sap_16_mot_HHH_b2_07579_000000275_0001_1_19_H_._HHH_b1_02229_0001_0000300011_0000001_0_0001_af2pred_0001 (protein)
chain: SSSSDEEELRERIEELLEEARRIPDKREASFLFTRAFALANRNNDEELKREVEELAQRTSSSSSS
B15: il10ra_site1_normal_mot_HHH_b1_05357_000000034_0001_23_39_H_._HHH_b1_01900_0002_0000100005_0000001_0_af2pred_0001 (protein)
chain: SSSSSEDKEEVRRLLEEAEEYAEEGNPERVAYLLVRAFALANRNNNEELKRLVERVAKELISSSS
B16: il10ra_site1_normal_mot_HHH_b1_05189_000000097_0001_43_57_H_._HHH_b2_05352_0001_0000300024_0000001_0_af2pred_0001 (protein)
chain: SSSSDDEAVKRVAELLREALHIPDEEERRKILEEAQEVAEEGNSPVLEWAVESIRRKLERSSSSS
B17: il10ra_site1_sap_22_mot_ems_3hM_1776_000000199_0001_44_63_H_._HHH_b1_04086_af2_0001_0000100003_0000001_0_0001 (protein)
chain: SSSSDVAEEVKRAIEEALRLLRNGDPEEAERLLEELEEKLEERGNQLAIMAVRYALEIVQESSSS
B18: il10ra_site1_normal_mot_HHH_b2_03568_000000058_0001_1_19_H_._HHH_b1_05354_0001_0000100001_0000001_1 (protein)
chain: SSSSSDESYELARKAIEELVELFEEGDPEEVRRLAEEVIEELRELGDEVAALSIEHLLRALSSSS
B19: il10ra_site1_sap_18_mot_HHH_b2_02736_000000092_0001_22_38_H_._HHH_b2_04029_af2_0001_0000100005_0000002_0_0001 (protein)
chain: SSSSFHEVWRLSREIAEAIREGDEERVRELLEQLEELLEETGDPMVEYLLRVLRILFKHEFSSSS

This is one part of the list.

The assay deals with il10ra, Q13651. Put plainly: yeast display titration.
For the molecule B1, the “apparent Kd” value is “inactive: no binding seen”.
The same measure for B2: inactive: > 931 nM.
The same measure for B3: “inactive: no binding seen”.
The same measure for B4: “inactive: no binding seen”; for B5: “inactive: no binding seen”.
As for B6, the “apparent Kd” value was “inactive: no binding seen”.
In the case of B7, the “apparent Kd” value is “inactive: no binding seen”.
B8: the “apparent Kd” value was “inactive: no binding seen”.
Turning to B9, the “apparent Kd” value is “inactive: no binding seen”.
As to B10, the “apparent Kd” value is “inactive: no binding seen”.
As for B11, the “apparent Kd” value was “inactive: no binding seen”.
With B12, the “apparent Kd” value is “inactive: no binding seen”.
On to B13, for which the “apparent Kd” value was “inactive: no binding seen”.
On to B14, for which the “apparent Kd” value was “inactive: no binding seen”.
Consider B15, for which the “apparent Kd” value is “inactive: no binding seen”.
B16: the “apparent Kd” value was “inactive: no binding seen”.
With B17, the “apparent Kd” value was “inactive: no binding seen”.
Consider B18, for which the “apparent Kd” value is “inactive: no binding seen”.
Turning to B19, the “apparent Kd” value is “inactive: no binding seen”.
